The structures given here were assigned with low confidence; some may be wrong.
Target: A1 adenosine receptor (Mesocricetus auratus, UniProt A0A1U8BVR4)
Assay: Competitive radioligand binding assay, DDT cell membranes
Details: read-out: A1 BINDING AFFINITY Ki; membranes of DDT cells; tritiated radioligand 1.5 nM; 23° C. 90 minutes
Description: DDT cells (hamster vas deferens smooth muscle cell line) were grown as monolayers in petri dishes using Dulbecco's Modified Eagle's Medium (DMEM) containing 2.5 μg mL^−1 amphotericin B, 100 U mL^−1 penicillin G, 0.1 mg mL^−1 streptomycin sulfate and 5% fetal bovine serum in a humidified atmosphere of 95% air and 5% CO2. Cells were subcultured twice weekly by dispersion in Hank's Balanced Salt Solution (HBSS) without the divalent cations and containing 1 mM EDTA. The cells were then seeded in growth medium at a density of 1.2×10^5 cells per plate and experiments were performed 4 days later at approximately one day preconfluence.
Attached cells were washed twice with HBSS (2×10 mL), scraped free of the plate with the aid of a rubber policeman in 5 mL of 50 mM Tris-HCl buffer pH 7.4 at 4° C. and the suspension was homogenized for 10 s. The suspension was then centrifuged at 27,000×g for 10 min. The pellet was resuspended in homogenization buffer by vortexing and centrifuged again as described above. […] The protein content was determined with a BradfordTm Assay Kit using bovine serum albumin as standard.
Compounds of Formula I were assayed by use of competitive radioligand binding methods to determine their affinity for the A1 adenosine receptor sites on the membranes of DDT cells. […] The amount of radioactivity retained on the filters was determined by liquid scintillation spectrometry. […]

Chains of the proteins cited; added tags and fusions are not shown. Residues count along the entry.
UniProt A0A1U8BVR4, 1-326: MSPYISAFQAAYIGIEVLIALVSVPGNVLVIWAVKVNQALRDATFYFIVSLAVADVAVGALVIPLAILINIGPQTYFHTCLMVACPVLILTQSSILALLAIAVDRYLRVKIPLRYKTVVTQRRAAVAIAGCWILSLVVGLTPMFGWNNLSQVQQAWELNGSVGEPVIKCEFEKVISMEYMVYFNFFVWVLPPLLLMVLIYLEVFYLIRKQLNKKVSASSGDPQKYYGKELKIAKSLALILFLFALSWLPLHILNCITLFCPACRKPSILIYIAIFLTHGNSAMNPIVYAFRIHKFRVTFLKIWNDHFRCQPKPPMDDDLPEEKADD

Compound: OC[C@H]1O[C@@H](n2cnc3c(NC4CCCC4)nc(-c4nn[nH]n4)nc32)[C@H](O)[C@@H]1O
- Ki: 8.25 nM

Source: patent publication US7381714B2, “A1 adenosine receptor agonists” (CV Therapeutics, Inc., priority 2005, dated 2008)
